Results from the supplement of paper PMC10849652.
The other results are listed elsewhere or left out.

Chains of the proteins cited; added tags and fusions are not shown. Lines headed by an entry give the natural chain unless they say otherwise; changes in a name come on top.
UniProt Q8NBQ5: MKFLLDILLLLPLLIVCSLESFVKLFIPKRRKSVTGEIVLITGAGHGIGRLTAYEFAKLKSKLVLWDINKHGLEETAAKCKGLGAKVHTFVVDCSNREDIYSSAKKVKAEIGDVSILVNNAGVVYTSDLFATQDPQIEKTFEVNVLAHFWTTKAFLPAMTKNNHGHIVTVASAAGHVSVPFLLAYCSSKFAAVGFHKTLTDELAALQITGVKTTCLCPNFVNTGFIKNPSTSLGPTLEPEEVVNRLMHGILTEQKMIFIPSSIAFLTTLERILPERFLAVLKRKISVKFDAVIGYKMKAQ
UniProt Q99714: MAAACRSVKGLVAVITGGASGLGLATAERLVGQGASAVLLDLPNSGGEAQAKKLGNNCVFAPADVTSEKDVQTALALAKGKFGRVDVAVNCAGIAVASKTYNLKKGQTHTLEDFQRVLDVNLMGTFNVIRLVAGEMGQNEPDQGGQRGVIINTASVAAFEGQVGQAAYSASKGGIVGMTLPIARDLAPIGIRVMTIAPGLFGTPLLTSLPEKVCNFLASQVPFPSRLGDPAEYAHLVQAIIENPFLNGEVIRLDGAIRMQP
UniProt Q03014: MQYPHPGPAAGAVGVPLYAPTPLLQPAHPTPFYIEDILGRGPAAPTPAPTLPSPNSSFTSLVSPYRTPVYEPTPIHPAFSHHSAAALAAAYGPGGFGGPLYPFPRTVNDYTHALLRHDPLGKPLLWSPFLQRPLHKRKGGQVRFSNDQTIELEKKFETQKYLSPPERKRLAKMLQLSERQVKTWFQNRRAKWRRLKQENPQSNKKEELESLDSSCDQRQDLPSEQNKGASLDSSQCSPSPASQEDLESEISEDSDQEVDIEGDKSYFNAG
UniProt Q3SXM5: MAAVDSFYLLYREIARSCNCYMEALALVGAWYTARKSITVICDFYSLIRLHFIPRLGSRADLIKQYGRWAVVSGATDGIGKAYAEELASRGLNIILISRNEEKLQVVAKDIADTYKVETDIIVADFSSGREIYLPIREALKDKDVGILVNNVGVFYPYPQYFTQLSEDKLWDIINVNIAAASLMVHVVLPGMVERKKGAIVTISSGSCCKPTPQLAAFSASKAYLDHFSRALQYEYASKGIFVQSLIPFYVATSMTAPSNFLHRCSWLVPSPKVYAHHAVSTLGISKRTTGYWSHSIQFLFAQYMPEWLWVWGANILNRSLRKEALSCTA
UniProt O00291: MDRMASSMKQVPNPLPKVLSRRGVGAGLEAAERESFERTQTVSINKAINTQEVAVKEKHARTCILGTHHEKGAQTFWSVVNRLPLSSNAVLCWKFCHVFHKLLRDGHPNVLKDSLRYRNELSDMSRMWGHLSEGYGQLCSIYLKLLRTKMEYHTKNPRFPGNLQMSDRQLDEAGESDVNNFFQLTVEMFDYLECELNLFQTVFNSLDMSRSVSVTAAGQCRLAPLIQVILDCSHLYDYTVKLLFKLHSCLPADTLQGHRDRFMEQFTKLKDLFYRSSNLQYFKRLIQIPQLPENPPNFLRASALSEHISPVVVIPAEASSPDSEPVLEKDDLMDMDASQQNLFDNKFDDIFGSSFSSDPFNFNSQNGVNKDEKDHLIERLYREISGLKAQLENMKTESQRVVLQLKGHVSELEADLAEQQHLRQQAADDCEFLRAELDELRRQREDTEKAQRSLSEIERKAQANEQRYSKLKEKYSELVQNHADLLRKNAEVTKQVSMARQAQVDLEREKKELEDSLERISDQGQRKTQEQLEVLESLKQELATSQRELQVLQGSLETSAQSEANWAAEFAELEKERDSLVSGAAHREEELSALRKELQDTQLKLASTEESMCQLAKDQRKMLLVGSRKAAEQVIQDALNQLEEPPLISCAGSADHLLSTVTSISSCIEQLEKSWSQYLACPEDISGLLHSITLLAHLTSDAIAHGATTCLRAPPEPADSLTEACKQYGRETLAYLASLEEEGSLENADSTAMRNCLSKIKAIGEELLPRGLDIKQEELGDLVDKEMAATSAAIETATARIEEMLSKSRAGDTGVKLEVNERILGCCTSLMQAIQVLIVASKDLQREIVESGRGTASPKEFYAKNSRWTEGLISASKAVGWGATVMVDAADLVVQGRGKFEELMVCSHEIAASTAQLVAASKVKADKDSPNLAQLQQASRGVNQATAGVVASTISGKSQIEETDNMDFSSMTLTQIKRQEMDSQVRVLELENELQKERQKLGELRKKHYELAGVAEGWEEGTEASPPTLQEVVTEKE
UniProt Q2TB90: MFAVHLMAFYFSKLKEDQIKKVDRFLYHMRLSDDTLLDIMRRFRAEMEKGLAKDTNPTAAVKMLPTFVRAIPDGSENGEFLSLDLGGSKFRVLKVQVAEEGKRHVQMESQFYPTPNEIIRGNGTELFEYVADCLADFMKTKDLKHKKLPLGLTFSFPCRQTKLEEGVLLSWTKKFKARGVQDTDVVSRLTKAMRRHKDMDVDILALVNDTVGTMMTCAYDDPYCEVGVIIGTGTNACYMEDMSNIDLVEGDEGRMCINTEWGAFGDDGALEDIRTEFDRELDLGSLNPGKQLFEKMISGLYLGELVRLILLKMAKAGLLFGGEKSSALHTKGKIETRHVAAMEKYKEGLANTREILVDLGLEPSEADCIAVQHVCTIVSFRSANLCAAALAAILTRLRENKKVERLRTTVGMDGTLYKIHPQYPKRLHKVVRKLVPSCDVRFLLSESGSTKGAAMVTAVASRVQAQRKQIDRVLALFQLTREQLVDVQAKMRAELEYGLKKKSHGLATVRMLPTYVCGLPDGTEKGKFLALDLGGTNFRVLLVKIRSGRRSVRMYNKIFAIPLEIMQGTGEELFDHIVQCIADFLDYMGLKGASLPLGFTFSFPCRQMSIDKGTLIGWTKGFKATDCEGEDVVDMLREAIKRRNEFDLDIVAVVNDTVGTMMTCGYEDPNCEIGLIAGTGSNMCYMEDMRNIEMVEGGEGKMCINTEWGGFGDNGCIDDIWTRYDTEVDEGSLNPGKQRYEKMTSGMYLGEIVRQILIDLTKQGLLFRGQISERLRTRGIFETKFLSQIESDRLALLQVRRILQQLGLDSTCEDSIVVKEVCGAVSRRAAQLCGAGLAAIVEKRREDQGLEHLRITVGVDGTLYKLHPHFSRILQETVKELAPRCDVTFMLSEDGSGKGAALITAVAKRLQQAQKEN
UniProt P23327: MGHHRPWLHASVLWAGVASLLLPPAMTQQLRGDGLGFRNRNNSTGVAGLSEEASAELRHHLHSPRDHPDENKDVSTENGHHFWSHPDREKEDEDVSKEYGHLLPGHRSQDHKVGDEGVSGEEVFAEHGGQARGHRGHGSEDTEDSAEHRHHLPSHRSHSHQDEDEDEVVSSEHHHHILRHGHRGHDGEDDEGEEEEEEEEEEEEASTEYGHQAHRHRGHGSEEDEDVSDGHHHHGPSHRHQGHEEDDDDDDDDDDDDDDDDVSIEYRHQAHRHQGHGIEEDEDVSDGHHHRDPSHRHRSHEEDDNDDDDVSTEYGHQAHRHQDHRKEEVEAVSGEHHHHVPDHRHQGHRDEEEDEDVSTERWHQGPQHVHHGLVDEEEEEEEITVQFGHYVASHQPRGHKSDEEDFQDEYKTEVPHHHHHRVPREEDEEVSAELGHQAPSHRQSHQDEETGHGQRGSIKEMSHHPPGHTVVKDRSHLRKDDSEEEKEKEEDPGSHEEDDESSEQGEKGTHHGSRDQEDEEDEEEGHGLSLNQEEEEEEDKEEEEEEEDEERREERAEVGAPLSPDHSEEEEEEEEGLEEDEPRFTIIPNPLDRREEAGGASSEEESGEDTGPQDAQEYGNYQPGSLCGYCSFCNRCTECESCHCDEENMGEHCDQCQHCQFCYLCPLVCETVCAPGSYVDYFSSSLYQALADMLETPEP
UniProt P17482: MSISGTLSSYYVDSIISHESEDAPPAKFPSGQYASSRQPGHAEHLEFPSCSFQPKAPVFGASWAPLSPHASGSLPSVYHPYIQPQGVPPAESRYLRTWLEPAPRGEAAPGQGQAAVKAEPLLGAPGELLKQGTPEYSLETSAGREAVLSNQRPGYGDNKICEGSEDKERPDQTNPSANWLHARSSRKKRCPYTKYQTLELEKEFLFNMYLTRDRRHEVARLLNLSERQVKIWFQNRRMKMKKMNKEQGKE
UniProt O15347: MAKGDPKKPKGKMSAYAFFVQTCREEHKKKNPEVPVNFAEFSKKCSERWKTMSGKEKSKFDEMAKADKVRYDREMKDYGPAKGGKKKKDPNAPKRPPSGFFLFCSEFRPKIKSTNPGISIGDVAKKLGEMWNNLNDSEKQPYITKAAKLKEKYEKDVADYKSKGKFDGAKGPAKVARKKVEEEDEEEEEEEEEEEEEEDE
UniProt Q86YM7: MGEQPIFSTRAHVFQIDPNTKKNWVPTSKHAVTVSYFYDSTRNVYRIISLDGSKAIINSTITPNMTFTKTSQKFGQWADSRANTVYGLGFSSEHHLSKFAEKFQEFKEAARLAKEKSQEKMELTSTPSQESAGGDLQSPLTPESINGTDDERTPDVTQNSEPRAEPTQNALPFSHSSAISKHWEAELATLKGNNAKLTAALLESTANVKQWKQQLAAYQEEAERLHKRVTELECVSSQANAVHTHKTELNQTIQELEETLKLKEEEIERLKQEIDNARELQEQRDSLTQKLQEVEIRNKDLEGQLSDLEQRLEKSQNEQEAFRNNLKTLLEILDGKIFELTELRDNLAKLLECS
UniProt P05114: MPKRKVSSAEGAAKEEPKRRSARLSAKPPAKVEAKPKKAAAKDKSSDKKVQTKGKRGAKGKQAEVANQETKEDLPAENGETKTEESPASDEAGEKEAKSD
UniProt P50747: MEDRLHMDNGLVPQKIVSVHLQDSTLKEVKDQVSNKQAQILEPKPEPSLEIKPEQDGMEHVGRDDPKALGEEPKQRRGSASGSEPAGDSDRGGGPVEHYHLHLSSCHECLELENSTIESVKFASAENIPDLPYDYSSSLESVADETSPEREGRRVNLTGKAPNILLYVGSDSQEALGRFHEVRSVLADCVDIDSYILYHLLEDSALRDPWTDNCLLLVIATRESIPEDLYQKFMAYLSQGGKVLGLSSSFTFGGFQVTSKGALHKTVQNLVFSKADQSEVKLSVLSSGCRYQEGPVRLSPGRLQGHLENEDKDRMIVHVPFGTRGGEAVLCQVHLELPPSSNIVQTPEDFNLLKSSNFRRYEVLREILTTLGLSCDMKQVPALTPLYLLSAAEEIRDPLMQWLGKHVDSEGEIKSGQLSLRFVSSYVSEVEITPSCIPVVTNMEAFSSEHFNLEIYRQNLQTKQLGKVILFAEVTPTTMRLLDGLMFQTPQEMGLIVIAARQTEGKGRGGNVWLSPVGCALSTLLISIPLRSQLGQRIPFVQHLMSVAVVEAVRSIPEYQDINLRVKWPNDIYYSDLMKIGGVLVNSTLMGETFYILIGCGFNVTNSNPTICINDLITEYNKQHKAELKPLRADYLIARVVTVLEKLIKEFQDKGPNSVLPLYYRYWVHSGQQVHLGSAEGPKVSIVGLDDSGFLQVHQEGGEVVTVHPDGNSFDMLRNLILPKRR
UniProt P17066, whole entry, looked up: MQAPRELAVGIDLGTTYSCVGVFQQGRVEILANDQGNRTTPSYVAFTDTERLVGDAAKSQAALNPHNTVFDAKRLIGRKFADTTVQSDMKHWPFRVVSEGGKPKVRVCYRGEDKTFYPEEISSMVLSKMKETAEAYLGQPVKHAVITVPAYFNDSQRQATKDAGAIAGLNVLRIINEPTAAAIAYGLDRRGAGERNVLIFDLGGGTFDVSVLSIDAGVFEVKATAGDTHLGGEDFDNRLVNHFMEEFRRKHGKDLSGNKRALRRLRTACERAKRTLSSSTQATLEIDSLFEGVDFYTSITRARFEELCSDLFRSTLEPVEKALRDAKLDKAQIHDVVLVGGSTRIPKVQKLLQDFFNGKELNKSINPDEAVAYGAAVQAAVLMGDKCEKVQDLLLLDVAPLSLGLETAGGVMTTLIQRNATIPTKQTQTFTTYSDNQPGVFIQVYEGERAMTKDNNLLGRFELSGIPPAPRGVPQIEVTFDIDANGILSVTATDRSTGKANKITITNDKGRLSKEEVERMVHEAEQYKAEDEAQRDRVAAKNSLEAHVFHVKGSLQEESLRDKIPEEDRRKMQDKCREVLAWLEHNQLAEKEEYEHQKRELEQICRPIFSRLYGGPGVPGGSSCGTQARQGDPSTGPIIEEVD
UniProt P31937: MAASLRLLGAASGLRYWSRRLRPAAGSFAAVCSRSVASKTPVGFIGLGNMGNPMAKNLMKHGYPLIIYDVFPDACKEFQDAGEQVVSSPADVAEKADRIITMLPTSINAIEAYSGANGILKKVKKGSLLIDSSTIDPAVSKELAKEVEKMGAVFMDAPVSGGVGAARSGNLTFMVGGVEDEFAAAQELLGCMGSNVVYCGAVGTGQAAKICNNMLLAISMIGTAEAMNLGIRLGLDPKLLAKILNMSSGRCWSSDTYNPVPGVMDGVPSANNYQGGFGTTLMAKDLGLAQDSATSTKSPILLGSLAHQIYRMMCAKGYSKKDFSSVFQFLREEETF

Tests used:
Test in all cases: log2 fold change, soluble protein after heating vs DMSO (PISA); higher = thermal stabilisation; K562 cells, 10 uM, 30 min; active = over 0.2 and 3.5 SD of the protein, either way, in both replicates (recomputed)
[1] = compound: CC1=C(C=C(C=C1)NC(=O)C2=CC(=CC=C2)C(C)(C)C#N)NC3=CC4=C(C=C3)N=CN(C4=O)C
Summary of the method: (§1)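 Thermal stability values are relative to control samples and come from duplicates. They are expressed as log2 fold changes. For measurement, K562 cells (2×10^6 cells/mL) received 10 μM compound for 30 min, and aliquots were heated for 3 min over 48°C-58°C, pooled, and extracted at 4°C in PBS with 0.5% NP-40. Soluble protein, the supernatant after 21,000xg for 90 min, was quantified by TMTpro 16plex LC-MS/MS with equalised channel sums.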

[2] = compound: CC1=C(C=C(C=C1)NC(=O)C2=CC(=CC=C2)N(C)C)NC(=O)C3=CC=C(C=C3)O
Summary of the method: as §1

[3] = compound: CC1=CC=C(C=C1)SC2=C3C=C(SC3=CN=C2)C(=O)N
Summary of the method: as §1

[4] = compound: CC1=NC(=CC=C1)C2=C(N=C(N2)C(C)(C)C)C3=CC4=NC=CN=C4C=C3
Summary of the method: as §1

Nexturastat A = compound: CCCCN(Cc1ccc(C(=O)NO)cc1)C(=O)Nc1ccccc1 [Nexturastat A]
Summary of the method: as §1

vemurafenib = compound: CCCS(=O)(=O)Nc1ccc(F)c(C(=O)c2c[nH]c3ncc(-c4ccc(Cl)cc4)cc23)c1F [vemurafenib]
Summary of the method: as §1

[5] = compound: CCCS(=O)(=O)Nc1ccc(F)c(C(=O)c2c[nH]c3ncc(Cl)cc23)c1F
Summary of the method: as §1

[6] = compound: CCCc1cc(C)[nH]c(=O)c1CNC(=O)c1cc(-c2ccnc(N3CCN(C)CC3)c2)cc2c1cnn2C(C)C
Summary of the method: as §1

givinostat = compound: CCN(CC)Cc1ccc2cc(COC(=O)Nc3ccc(C(=O)NO)cc3)ccc2c1 [givinostat]
Summary of the method: as §1

barasertib = compound: CCN(CCCOc1ccc2c(Nc3cc(CC(=O)Nc4cccc(F)c4)[nH]n3)ncnc2c1)CCOP(=O)(O)O [barasertib]
Summary of the method: as §1

[7] = compound: CC[C@@H]1C(=O)N(C)c2cnc(Nc3ccc(C(=O)NC4CCN(C)CC4)cc3OC)nc2N1C1CCCC1
Summary of the method: as §1

volasertib = compound: CC[C@@H]1C(=O)N(C)c2cnc(Nc3ccc(C(=O)N[C@H]4CC[C@H](N5CCN(CC6CC6)CC5)CC4)cc3OC)nc2N1C(C)C [volasertib]
Summary of the method: as §1

[8] = compound: CC[C@H](C)N1C=C(C2=C(C=C(C=C21)C3=CN=C(C=C3)N4CCNCC4)C(=O)NCC5=C(C=C(NC5=O)C)C)C
Summary of the method: as §1

epoxomicin = compound: CC[C@H](C)[C@@H](C(=O)N[C@@H]([C@@H](C)O)C(=O)N[C@@H](CC(C)C)C(=O)[C@]1(CO1)C)NC(=O)[C@H]([C@@H](C)CC)N(C)C(=O)C [epoxomicin]
Summary of the method: as §1

[9] = compound: CCn1c(C(=O)N(C2CC2)C2CC2)cc2c3c(ncn3C)c(Nc3cc(C)n(C)n3)nc21
Summary of the method: as §1

[10] = compound: CCn1cc(-c2ccnc3[nH]c(-c4cccc(CN(C)C)c4)cc23)c(-c2ccc(NC(=O)N(C)C)cc2)n1
Summary of the method: as §1

[11] = compound: CN(C)CC(=O)Nc1ccc2[nH]c(=O)c3ccccc3c2c1
Summary of the method: as §1

rosiglitazone = compound: CN(CCOC1=CC=C(C=C1)C[C@H]2C(=O)NC(=O)S2)C3=CC=CC=N3 (racemic) [rosiglitazone]
Summary of the method: as §1

[12] = compound: CN1C2=C(C3=C1C(=O)N(N=C3)CC4=CC(=CC=C4)N)SC(=C2)S(=O)C
Summary of the method: as §1

[13] = compound: CN1CCC(CNc2ccc3ncc(-c4cccc(OC(F)(F)F)c4)n3n2)CC1
Summary of the method: as §1

| Target | log2 fold change [1] | log2 fold change [2] | log2 fold change [3] | log2 fold change [4] | log2 fold change (Nexturastat A) | log2 fold change (vemurafenib) | log2 fold change [5] | log2 fold change [6] | log2 fold change (givinostat) | log2 fold change (barasertib) | log2 fold change [7] | log2 fold change (volasertib) | log2 fold change [8] | log2 fold change (epoxomicin) | log2 fold change [9] | log2 fold change [10] | log2 fold change [11] | log2 fold change (rosiglitazone) | log2 fold change [12] | log2 fold change [13] |
| --- | --- | --- | --- | --- | --- | --- | --- | --- | --- | --- | --- | --- | --- | --- | --- | --- | --- | --- | --- | --- |
| HSD17B11 (UniProt Q8NBQ5) | inactive: 0.021 | inactive: 0.033 | inactive: 0.005 | inactive: 0.035 | inactive: -0.058 | inactive: 0.028 | inactive: -0.006 | inactive: 0.008 | inactive: -0.023 | inactive: 0.006 | inactive: 0.043 | inactive: -0.042 | inactive: 0.004 | inactive: 0.007 | inactive: -0.014 | inactive: -0.047 | inactive: 0.007 | inactive: -0.003 | inactive: -0.073 | inactive: 0.048 |
| HSD17B10 (UniProt Q99714) | inactive: 0.098 | inactive: -0.028 | inactive: 0.055 | inactive: 0.099 | inactive: -0.138 | inactive: 0.051 | inactive: 0.074 | inactive: -0.018 | inactive: -0.017 | inactive: 0.003 | inactive: 0.041 | inactive: 0.056 | inactive: 0.01 | inactive: 0.051 | inactive: -0.007 | inactive: -0.087 | inactive: 0.061 | inactive: 0.026 | inactive: -0.126 | inactive: 0.094 |
| HIST2H3A (UniProt Q71DI3) | inactive: -0.1 | inactive: -0.004 | inactive: -0.119 | inactive: -0.056 | active: 0.921 | inactive: -0.203 | inactive: 0.592 | inactive: 0.037 | inactive: 0.321 | inactive: -0.148 | inactive: -0.206 | inactive: 0.111 | inactive: -0.023 | inactive: -0.003 | – | inactive: 0.315 | inactive: -0.124 | – | inactive: 0.56 | inactive: 0.09 |
| HHEX (UniProt Q03014) | inactive: -0.03 | inactive: 0.045 | inactive: -0.009 | inactive: -0.055 | inactive: 0.05 | inactive: -0.081 | inactive: 0 | inactive: 0.026 | inactive: -0.026 | inactive: -0.003 | inactive: 0.027 | inactive: 0.07 | inactive: 0.053 | inactive: 0.164 | – | inactive: 0.05 | inactive: 0.234 | – | inactive: 0.117 | inactive: -0.023 |
| HSDL1 (UniProt Q3SXM5) | inactive: -0.017 | inactive: 0.012 | inactive: 0.043 | inactive: -0.039 | inactive: -0.044 | inactive: -0.051 | inactive: 0.06 | inactive: -0.044 | inactive: -0.01 | inactive: 0.001 | inactive: 0.064 | inactive: 0.106 | inactive: -0.032 | inactive: -0.019 | inactive: 0.006 | inactive: -0.037 | inactive: 0 | inactive: -0.017 | inactive: -0.1 | inactive: 0.027 |
| HIP1 (UniProt O00291) | inactive: -0.086 | inactive: -0.004 | inactive: -0.028 | inactive: 0.002 | active: 0.286 | inactive: -0.003 | inactive: 0.056 | inactive: 0.233 | inactive: 0.043 | inactive: 0.01 | inactive: 0.027 | inactive: -0.23 | inactive: -0.095 | inactive: 0.085 | – | inactive: 0.031 | inactive: -0.045 | – | inactive: -0.063 | inactive: -0.148 |
| HMGN2 (UniProt P05204) | inactive: 0.115 | inactive: 0.097 | inactive: -0.038 | inactive: 0.047 | inactive: -0.016 | inactive: 0.032 | inactive: -0.058 | inactive: -0.078 | inactive: -0.019 | inactive: 0.047 | inactive: -0.083 | inactive: 0.073 | inactive: -0.109 | inactive: -0.082 | – | inactive: -0.041 | inactive: -0.081 | – | inactive: 0.02 | inactive: 0.071 |
| HKDC1 (UniProt Q2TB90) | inactive: -0.004 | inactive: -0.049 | inactive: 0.007 | inactive: 0.058 | inactive: -0.196 | inactive: -0.026 | inactive: -0.024 | inactive: -0.02 | inactive: -0.014 | inactive: 0.048 | inactive: -0.034 | inactive: -0.211 | inactive: -0.011 | inactive: 0.005 | inactive: -0.023 | inactive: 0.044 | inactive: 0.047 | inactive: 0.051 | inactive: 0.004 | inactive: 0.026 |
| HRC (UniProt P23327) | inactive: -0.199 | inactive: 0.031 | inactive: 0.008 | inactive: 0.005 | inactive: 0.041 | inactive: -0.044 | inactive: -0.097 | inactive: -0.025 | inactive: -0.059 | inactive: 0.021 | inactive: 0.01 | inactive: 0.043 | inactive: -0.014 | inactive: -0.061 | – | inactive: -0.023 | inactive: 0.005 | – | inactive: -0.107 | inactive: -0.013 |
| HOXB9 (UniProt P17482) | inactive: 0.083 | inactive: -0.083 | inactive: 0.042 | inactive: -0.03 | inactive: -0.049 | inactive: -0.076 | inactive: 0.044 | inactive: 0.059 | inactive: -0.05 | inactive: 0.106 | inactive: -0.197 | inactive: -0.231 | inactive: -0.002 | inactive: 0.087 | inactive: -0.124 | – | inactive: 0.019 | inactive: 0.163 | inactive: -0.033 | – |
| HMGB3 (UniProt O15347) | inactive: -0.012 | inactive: 0 | inactive: 0.006 | inactive: 0.011 | inactive: -0.014 | inactive: -0.083 | inactive: 0.011 | inactive: 0.202 | inactive: -0.016 | inactive: -0.008 | inactive: -0.182 | inactive: 0.064 | inactive: 0.053 | inactive: -0.007 | – | inactive: -0.021 | inactive: -0.022 | – | inactive: -0.039 | inactive: 0.015 |
| HOMER1 (UniProt Q86YM7) | inactive: -0.049 | inactive: -0.059 | inactive: -0.009 | inactive: 0.125 | inactive: -0.138 | inactive: -0.021 | inactive: 0.071 | inactive: 0.085 | inactive: 0.007 | inactive: 0.036 | inactive: -0.018 | inactive: 0.024 | inactive: -0.099 | inactive: 0.006 | – | inactive: -0.025 | inactive: 0.018 | – | inactive: -0.018 | inactive: 0.033 |
| HMGN1 (UniProt P05114) | inactive: 0.056 | inactive: 0.027 | inactive: -0.048 | inactive: 0.078 | inactive: -0.017 | inactive: 0.004 | inactive: -0.064 | inactive: -0.033 | inactive: -0.119 | inactive: -0.06 | inactive: 0.054 | inactive: 0.141 | inactive: -0.044 | inactive: -0.008 | – | inactive: 0.045 | inactive: -0.094 | – | inactive: 0.039 | inactive: 0.101 |
| HLCS (UniProt P50747) | inactive: 0.006 | inactive: 0.014 | inactive: 0.025 | inactive: 0.009 | inactive: -0.051 | inactive: -0.006 | inactive: 0.067 | inactive: 0.035 | inactive: -0.019 | inactive: 0.058 | inactive: -0.001 | inactive: -0.216 | inactive: 0.016 | inactive: 0.039 | inactive: 0.012 | inactive: 0.004 | inactive: 0.066 | inactive: 0.049 | inactive: -0.045 | inactive: -0.014 |
| HSPA8 (UniProt E9PK54) | inactive: 0.023 | inactive: 0.034 | inactive: -0.123 | inactive: 0.006 | inactive: 0.227 | inactive: -0.036 | inactive: 0.026 | inactive: -0.098 | inactive: 0.167 | inactive: -0.023 | inactive: 0.041 | inactive: 0.213 | inactive: -0.003 | inactive: -0.252 | – | inactive: 0.131 | inactive: -0.06 | – | inactive: 0.11 | inactive: 0.128 |
| HSPA6 (UniProt P17066) | inactive: -0.027 | inactive: 0 | inactive: -0.053 | inactive: 0.01 | inactive: 0.018 | inactive: -0.018 | inactive: -0.041 | inactive: -0.035 | inactive: -0.092 | inactive: -0.006 | inactive: 0.021 | inactive: 0.142 | inactive: -0.043 | inactive: -0.019 | inactive: 0.008 | inactive: 0.006 | inactive: -0.034 | inactive: -0.003 | inactive: 0.009 | inactive: 0.058 |
| HIBADH (UniProt P31937) | inactive: 0.004 | inactive: 0.019 | inactive: 0.006 | inactive: 0.002 | inactive: -0.011 | inactive: -0.017 | inactive: 0 | inactive: 0.009 | inactive: -0.009 | inactive: -0.005 | inactive: 0.01 | inactive: 0.043 | inactive: -0.017 | inactive: -0.032 | inactive: 0.033 | inactive: 0.018 | inactive: -0.008 | inactive: -0.013 | inactive: -0.037 | inactive: 0.07 |

Rewritten with tabs: part of the list above
Target	log2 fold change [1]	log2 fold change [2]	log2 fold change [3]	log2 fold change [4]	log2 fold change (Nexturastat A)	log2 fold change (vemurafenib)	log2 fold change [5]	log2 fold change [6]	log2 fold change (givinostat)	log2 fold change (barasertib)	log2 fold change [7]	log2 fold change (volasertib)	log2 fold change [8]	log2 fold change (epoxomicin)	log2 fold change [9]	log2 fold change [10]	log2 fold change [11]	log2 fold change (rosiglitazone)	log2 fold change [12]	log2 fold change [13]
HKDC1 (UniProt Q2TB90)	inactive: -0.004	inactive: -0.049	inactive: 0.007	inactive: 0.058	inactive: -0.196	inactive: -0.026	inactive: -0.024	inactive: -0.02	inactive: -0.014	inactive: 0.048	inactive: -0.034	inactive: -0.211	inactive: -0.011	inactive: 0.005	inactive: -0.023	inactive: 0.044	inactive: 0.047	inactive: 0.051	inactive: 0.004	inactive: 0.026
HRC (UniProt P23327)	inactive: -0.199	inactive: 0.031	inactive: 0.008	inactive: 0.005	inactive: 0.041	inactive: -0.044	inactive: -0.097	inactive: -0.025	inactive: -0.059	inactive: 0.021	inactive: 0.01	inactive: 0.043	inactive: -0.014	inactive: -0.061	–	inactive: -0.023	inactive: 0.005	–	inactive: -0.107	inactive: -0.013
